Assays:
[1] = Octanol-buffer partition coefficient, log D of the compound; details: octanol/water
[2] = biological target: hERG (KCNH2) (Homo sapiens, UniProt Q12809); experiment: in vitro; details: hek293

Sequences of proteins named here, by UniProt entry; tags and fusion partners are left off. A change or cut given only in a name is not applied to a line headed by its entry.
UniProt Q12809: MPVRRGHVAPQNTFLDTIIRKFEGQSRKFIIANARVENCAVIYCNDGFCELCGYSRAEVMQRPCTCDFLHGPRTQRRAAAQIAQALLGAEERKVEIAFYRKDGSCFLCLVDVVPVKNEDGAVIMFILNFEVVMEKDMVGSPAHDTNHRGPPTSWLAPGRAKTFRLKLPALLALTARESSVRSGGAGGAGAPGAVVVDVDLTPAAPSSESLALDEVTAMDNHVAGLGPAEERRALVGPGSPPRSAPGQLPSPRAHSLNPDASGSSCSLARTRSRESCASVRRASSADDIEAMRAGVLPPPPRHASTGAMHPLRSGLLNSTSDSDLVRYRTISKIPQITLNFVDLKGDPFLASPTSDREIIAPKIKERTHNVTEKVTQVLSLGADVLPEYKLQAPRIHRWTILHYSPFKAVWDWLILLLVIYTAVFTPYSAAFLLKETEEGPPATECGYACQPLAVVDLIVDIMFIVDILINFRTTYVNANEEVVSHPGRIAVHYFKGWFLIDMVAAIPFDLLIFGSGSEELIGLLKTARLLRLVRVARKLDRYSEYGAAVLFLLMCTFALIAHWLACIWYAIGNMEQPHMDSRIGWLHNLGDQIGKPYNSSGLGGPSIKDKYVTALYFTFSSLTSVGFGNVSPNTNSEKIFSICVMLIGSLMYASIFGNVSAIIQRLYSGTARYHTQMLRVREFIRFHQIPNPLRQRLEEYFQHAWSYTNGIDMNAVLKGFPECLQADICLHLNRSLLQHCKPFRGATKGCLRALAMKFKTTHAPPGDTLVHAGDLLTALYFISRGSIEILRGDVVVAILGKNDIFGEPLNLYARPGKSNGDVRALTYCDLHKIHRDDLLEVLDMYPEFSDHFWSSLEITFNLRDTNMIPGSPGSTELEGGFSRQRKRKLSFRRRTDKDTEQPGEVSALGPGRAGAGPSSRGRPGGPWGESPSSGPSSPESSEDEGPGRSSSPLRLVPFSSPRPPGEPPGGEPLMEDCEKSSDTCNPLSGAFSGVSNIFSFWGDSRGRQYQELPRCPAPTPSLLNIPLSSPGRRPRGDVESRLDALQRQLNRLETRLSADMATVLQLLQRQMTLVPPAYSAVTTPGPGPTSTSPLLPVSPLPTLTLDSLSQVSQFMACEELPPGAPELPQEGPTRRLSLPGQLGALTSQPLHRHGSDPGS

COC(=O)N1CCc2nc(C)n([C@H]3C[C@H]4CC[C@@H](C3)N4CC[C@H](NC(C)=O)c3cccc(F)c3)c2C1 gave a logD [1] of 1.9 and an inhibition at 0.3 µM [2] of 0%.

From ChEMBL document CHEMBL1649066, “An imidazopiperidine series of CCR5 antagonists for the treatment of HIV: the discovery of N-{(1S)-1-(3-fluorophenyl)-3-[(3-endo)-3-(5-isobutyryl-2-methyl-4,5,6,7-tetrahydro-1H-imidazo[4,5-c]pyridin-1-yl)-8-azabicyclo[3.2.1]oct-8-yl]propyl}acetamide (PF-232798)” (J Med Chem, 2011)
